Reference: paper doi:10.1101/2023.09.29.560101
No constants are given. Whether binding was seen depends on the method and setting. Binding seen in cells or lysates may run through a third protein. Some binding calls cover weakened binding; strength is not graded here.

Sequences of proteins named here, by UniProt entry; tags and fusion partners are left off. Residues count along the entry.
UniProt Q8K0D5, residues 38-751: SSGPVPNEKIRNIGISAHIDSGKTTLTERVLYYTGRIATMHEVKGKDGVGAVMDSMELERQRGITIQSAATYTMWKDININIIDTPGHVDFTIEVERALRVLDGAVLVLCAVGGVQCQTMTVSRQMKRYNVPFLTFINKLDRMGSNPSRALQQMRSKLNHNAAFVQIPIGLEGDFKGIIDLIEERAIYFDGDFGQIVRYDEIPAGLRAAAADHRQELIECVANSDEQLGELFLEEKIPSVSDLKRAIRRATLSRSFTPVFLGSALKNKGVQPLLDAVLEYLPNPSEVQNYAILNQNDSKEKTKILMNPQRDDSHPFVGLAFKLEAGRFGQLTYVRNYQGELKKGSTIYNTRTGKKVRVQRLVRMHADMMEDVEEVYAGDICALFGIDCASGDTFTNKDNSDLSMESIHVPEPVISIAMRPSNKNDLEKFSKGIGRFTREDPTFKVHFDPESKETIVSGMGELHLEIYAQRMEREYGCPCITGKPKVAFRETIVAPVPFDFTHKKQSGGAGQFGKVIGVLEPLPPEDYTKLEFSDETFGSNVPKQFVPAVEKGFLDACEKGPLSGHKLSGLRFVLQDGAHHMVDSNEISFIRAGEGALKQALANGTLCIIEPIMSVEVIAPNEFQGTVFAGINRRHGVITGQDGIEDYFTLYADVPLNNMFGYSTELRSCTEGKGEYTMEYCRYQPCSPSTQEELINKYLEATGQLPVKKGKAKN
UniProt Q9JHS4, residues 57-634: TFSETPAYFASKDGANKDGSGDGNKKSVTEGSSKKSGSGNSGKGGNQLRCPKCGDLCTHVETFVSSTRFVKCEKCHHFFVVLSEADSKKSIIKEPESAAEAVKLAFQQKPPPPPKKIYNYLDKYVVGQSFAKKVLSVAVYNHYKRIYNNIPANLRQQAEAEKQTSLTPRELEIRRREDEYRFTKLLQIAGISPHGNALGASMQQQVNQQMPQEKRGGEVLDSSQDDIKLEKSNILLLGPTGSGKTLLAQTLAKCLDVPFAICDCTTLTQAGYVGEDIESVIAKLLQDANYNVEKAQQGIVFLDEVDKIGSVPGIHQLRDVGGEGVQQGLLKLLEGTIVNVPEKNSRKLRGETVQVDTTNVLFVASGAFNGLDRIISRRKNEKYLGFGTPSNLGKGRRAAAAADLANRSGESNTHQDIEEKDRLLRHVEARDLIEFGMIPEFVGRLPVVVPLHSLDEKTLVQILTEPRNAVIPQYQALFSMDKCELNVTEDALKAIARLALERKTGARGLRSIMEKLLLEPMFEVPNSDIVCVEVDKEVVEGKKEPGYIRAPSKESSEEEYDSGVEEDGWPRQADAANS

Target: GFM1, translation elongation factor G 1, mitochondrial (mouse, endogenous) (mouse (endogenous in mouse liver)) (UniProt Q8K0D5)
Test: co-IP

With “CLPX, specificity component of Clp protease complex, AAA+ ATPase (mouse, endogenous) (from UniProt Q9JHS4 57-634)” as the substance, how does the binding read?
Its binding is “binds”.
